Source: patent US10501497B2 (AXOLTIS PHARMA, priority 2015, dated 2019)

Assay: general procedure: Fmoc solid-phase peptide synthesis; MBHA resin with Fmoc-Gly-MPPA-OH linker
Conditions: whole synthesis

Question: For “PEPTIDE1{W.S.G.W.S.S.C.S.R.S.C.G}$PEPTIDE1,PEPTIDE1,7:R3-11:R3$$$V2.0”, which “crude HPLC purity” value is on record?
Answer: 44.51%

Question: And the “final purity (method not given)” value (HPLC)?
Answer: 99%

HELM strings list residues between dots; [ac] is acetyl, [am] amide, other brackets name non-standard units.
